These results are taken from patent US7794835B2, “Fixing solution, capsule structure, fixing method, fixing device and image forming apparatus” (Ricoh Company, Ltd., priority 2004, dated 2010).

One data set can be described thus: odor index by Triangle Odor Bag Method for Odor Sensory Measurement. The arrangement: species or system humans. The settings on record: softener (solute) alone.
In the case of `CCCCCCCC(=O)OC` [methylcaprylate, reference compound], the “odor index of the softener” value is recorded as 13. With `CC(C)COC(=O)CCCCC(=O)OCC(C)C` [diisobutyladipate], the “odor index of the softener” value is reported as 1. Consider `CCCCCCCCCCCC(=O)OCCCCCC` [hexyl laureate], for which the “odor index of the softener” value is given as 1.

Turning to `CCCCCCCCCCCC(=O)OCC` [ethyl laureate], the “odor index of the softener” value is 13. As to `CCCCOC(=O)CCCCCCCCC(=O)OCCCC` [dibutylsebacate], the “odor index of the softener” value is on record as 3.

`CCCCCCCCCCCCCC(=O)OC(C)C` [isopropylmyristate]: the “odor index of the softener” value was determined as 0. `CCOCCOC(=O)CCC(=O)OCCOCC` [diethoxy ethyl succinate]: the “odor index of the softener” value is reported as 1.

Still in this data set, the particulars now being: softener (solute) alone; listed as ethyllaurate.
Turning to `CCCCCCCCCCCC(=O)OCC` [ethyl laureate], the “odor index of the softener” value came to 3.

The same data set, now with this note: softener (solute) alone; listed as isobutyladipate.
For `CC(C)COC(=O)CCCCC(=O)OCC(C)C` [diisobutyladipate], the “odor index of the softener” value is listed as 3.

The data set is the same for the next values; noted with them: solvent part of the fixing solution.
In the case of dimethylsiloxane, the “odor index of the solution” value was determined as 0. Consider `O` [water], for which the “odor index of the solution” value is listed as 0. The same measure, in the same setting: for `CCCCCC` [n-hexane] the value was 0.
